Source: US20060040277A1 (published 2006)
These are yes or no findings as the source states them, for the method shown. In cells and extracts the contact can be indirect. Some entries that bind do so weakly or less than the wild type. Where a sequence is shown, tags or fusion partners need not be part of it.

Key:
[1] = target: T1, MBP-AT2: fusion protein between the C-terminal end of the human AT2 receptor (Asn314-Ser363) and Maltose Binding Protein (human) (UniProt P50052); assay: GST pull-down
T1 sequence (looked up): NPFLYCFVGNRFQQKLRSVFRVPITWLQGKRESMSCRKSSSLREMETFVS

[2] = target: T1, MBP-AT2: fusion protein between the C-terminal end of the human AT2 receptor (Asn314-Ser363) and Maltose Binding Protein (human); assay: GST pull-down, SDS-PAGE and immunoblot with anti-MBP
[3] = target: T1, MBP-AT2: fusion protein between the C-terminal end of the human AT2 receptor (Asn314-Ser363) and Maltose Binding Protein (human); assay: GST pull-down (FIG. 10)

binding [1]: binds
binding [2]: binds
binding [3]: binds
B1: GST-ATIPmouse-short fusion protein (from pGEX-4T1-GST-ATIPmouse-short), on glutathione-agarose beads (protein, not shown: a dimerising Fc or GST)
chain: QTDRTELENRLKDLYTAECEKLQSIYIEEAEKYKTQLQEQFDNLNAAHETTKLEIEASHSEKVELLKKTYETSLSEIKKSHEMEKKSLEDLLNEKQESLEKQINDLKSENDALNERLFEFPGRLERPHRD
